These results are taken from PMC8062585.

The chains behind the UniProt entries cited, without tags or fusion partners. Residues count along the entry.
UniProt P80188, 21-198: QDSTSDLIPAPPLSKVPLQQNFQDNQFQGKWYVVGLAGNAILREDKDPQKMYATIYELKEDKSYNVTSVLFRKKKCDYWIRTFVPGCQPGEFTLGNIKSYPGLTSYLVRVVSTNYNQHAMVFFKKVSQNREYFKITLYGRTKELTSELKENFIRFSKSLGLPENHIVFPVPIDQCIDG

The data set deals with NGAL (UniProt P80188). The data set can be described thus: bead-based fluorescence, 4-concentration estimate. Particulars: 5' biotin; PBSMCT: DPBS with 2.5 mM MgCl2, 0.9 mM CaCl2, 0.01% Tween 20; room temperature, 1 h; bound NGAL detected with iFluor 647 anti-His antibody (6 nM); commercial protein; protein details: C-terminal His-tag; single-stranded DNA.
As usually defined, the Kd is the free concentration of one partner at which half of the binding sites on the other are occupied at equilibrium, for simple one-to-one binding. Turning to GTTTTTGGTGGATAG [G12.7], the Kd was greater than 512 nM.
As for GTGGATAGTAAATCTTTGCCTATCCAG [G13.6], the Kd is greater than 1020 nM.
Then GATAGTAAATCTTTGCCTATCCA [G13.9], with greater than 1020 nM.
Then TTTGGTGGATAGTAAATCTTTGC [G13.10], with greater than 512 nM.
